Data from paper PMC11589570, “Critical assessment of LC3/GABARAP ligands used for degrader development and ligandability of LC3/GABARAP binding pockets” (Nature Communications, 2024).
Several values for one entry are separate records, joined by “and”; a condition that tells them apart may be missing. Equal entries are not always repeated. The source gives many values for each of these; only a part stands here.

Test system: RPE1 cells
Assay: Cell growth assay (IncuCyte confluence over 72 h)
Type: cell-based
In short: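 Phase confluence (% area covered by cells) imaged every 2 h for 72 h after compound addition; cells in DMEM/10% FBS, seeded 24 h before treatment. Controls were 0.1% DMSO, 250 nM Torin1 and 200 ng/mL Bafilomycin (final). Each point averages three wells.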

## O=C1Nc2ccc(Br)cc2C1=Cc1cc(O)c(O)c(Br)c1 [compound 1]
100 nM, 0 h, listed as AN1
  RPE1 cell growth: 20 and 12 and 21
100 nM, 2 h, listed as AN1
  RPE1 cell growth: 23 and 13 and 22
100 nM, 4 h, listed as AN1
  RPE1 cell growth: 25 and 14 and 23
100 nM, 6 h, listed as AN1
  RPE1 cell growth: 27 and 15 and 23
100 nM, 8 h, listed as AN1
  RPE1 cell growth: 28 and 15 and 25
100 nM, 20 h, listed as AN1
  RPE1 cell growth: 33
100 nM, 22 h, listed as AN1
  RPE1 cell growth: 45 and 24 and 35
100 nM, 26 h, listed as AN1
  RPE1 cell growth: 53 and 28 and 38
100 nM, 28 h, listed as AN1
  RPE1 cell growth: 58 and 29 and 40
100 nM, 30 h, listed as AN1
  RPE1 cell growth: 45 and 32 and 43
100 nM, 32 h, listed as AN1
  RPE1 cell growth: 67 and 35 and 47
100 nM, 34 h, listed as AN1
  RPE1 cell growth: 72 and 38 and 50
100 nM, 36 h, listed as AN1
  RPE1 cell growth: 74 and 41 and 52
100 nM, 38 h, listed as AN1
  RPE1 cell growth: 78 and 44 and 56
100 nM, 40 h, listed as AN1
  RPE1 cell growth: 57 and 46 and 60
100 nM, 44 h, listed as AN1
  RPE1 cell growth: 90 and 54 and 67
100 nM, 46 h, listed as AN1
  RPE1 cell growth: 93 and 57 and 70
100 nM, 48 h, listed as AN1
  RPE1 cell growth: 95 and 61 and 75
100 nM, 50 h, listed as AN1
  RPE1 cell growth: 97 and 66 and 79
100 nM, 52 h, listed as AN1
  RPE1 cell growth: 66 and 72 and 83
100 nM, 54 h, listed as AN1
  RPE1 cell growth: 98 and 78 and 87
100 nM, 58 h, listed as AN1
  RPE1 cell growth: 99 and 85 and 93
100 nM, 60 h, listed as AN1
  RPE1 cell growth: 100 and 91 and 95
100 nM, 62 h, listed as AN1
  RPE1 cell growth: 100 and 94 and 97
100 nM, 64 h, listed as AN1
  RPE1 cell growth: 100 and 96 and 98
100 nM, 66 h, listed as AN1
  RPE1 cell growth: 100 and 98 and 99
100 nM, 68 h, listed as AN1
  RPE1 cell growth: 100 and 99
100 nM, 70 h, listed as AN1
  RPE1 cell growth: 100 and 99
100 nM, 72 h
  RPE1 cell growth: 100
100 nM, time 20 h, listed as AN1
  RPE1 cell growth: 49 and 26 and 29
100 nM, time 22 h, listed as AN1
  RPE1 cell growth: 52 and 28 and 30
100 nM, time 24 h, listed as AN1
  RPE1 cell growth: 58 and 31 and 33
100 nM, time 26 h, listed as AN1
  RPE1 cell growth: 62 and 32 and 34
100 nM, time 28 h, listed as AN1
  RPE1 cell growth: 65 and 36 and 37
100 nM, time 30 h, listed as AN1
  RPE1 cell growth: 70 and 39
100 nM, time 32 h, listed as AN1
  RPE1 cell growth: 74 and 43 and 44
100 nM, time 34 h, listed as AN1
  RPE1 cell growth: 78 and 45 and 49
100 nM, time 36 h, listed as AN1
  RPE1 cell growth: 82 and 48 and 50
100 nM, time 38 h, listed as AN1
  RPE1 cell growth: 84 and 52
100 nM, time 40 h, listed as AN1
  RPE1 cell growth: 88 and 54 and 58
100 nM, time 42 h, listed as AN1
  RPE1 cell growth: 89 and 58 and 61
100 nM, time 44 h, listed as AN1
  RPE1 cell growth: 93 and 63 and 66
100 nM, time 46 h, listed as AN1
  RPE1 cell growth: 93 and 67 and 70
100 nM, time 48 h, listed as AN1
  RPE1 cell growth: 95 and 71 and 74
100 nM, time 50 h, listed as AN1
  RPE1 cell growth: 96 and 77 and 76
100 nM, time 52 h, listed as AN1
  RPE1 cell growth: 97 and 81 and 82
100 nM, time 54 h, listed as AN1
  RPE1 cell growth: 98 and 85 and 87
100 nM, time 56 h, listed as AN1
  RPE1 cell growth: 99 and 88
100 nM, time 58 h, listed as AN1
  RPE1 cell growth: 99 and 92 and 94
100 nM, time 60 h, listed as AN1
  RPE1 cell growth: 99 and 95
100 nM, time 62 h, listed as AN1
  RPE1 cell growth: 100 and 96 and 97
100 nM, time 64 h, listed as AN1
  RPE1 cell growth: 100 and 98
100 nM, time 66 h, listed as AN1
  RPE1 cell growth: 100 and 99
100 nM, time 68 h, listed as AN1
  RPE1 cell growth: 100 and 99
100 nM, time 70 h
  RPE1 cell growth: 100
100 nM, time 72 h
  RPE1 cell growth: 100
500 nM, 0 h, listed as AN1
  RPE1 cell growth: 25 and 19 and 18
500 nM, 2 h, listed as AN1
  RPE1 cell growth: 31 and 18 and 20
500 nM, 4 h, listed as AN1
  RPE1 cell growth: 33 and 20 and 22
500 nM, 6 h, listed as AN1
  RPE1 cell growth: 35 and 20 and 22
500 nM, 8 h, listed as AN1
  RPE1 cell growth: 38 and 21 and 23
500 nM, 20 h, listed as AN1
  RPE1 cell growth: 50 and 31 and 34
500 nM, 22 h, listed as AN1
  RPE1 cell growth: 55 and 34 and 36
500 nM, 24 h, listed as AN1
  RPE1 cell growth: 60 and 36 and 38
500 nM, 26 h, listed as AN1
  RPE1 cell growth: 62 and 39 and 42
500 nM, 28 h, listed as AN1
  RPE1 cell growth: 67 and 41 and 43
500 nM, 32 h, listed as AN1
  RPE1 cell growth: 76 and 49 and 50
500 nM, 34 h, listed as AN1
  RPE1 cell growth: 79 and 52 and 53
500 nM, 36 h, listed as AN1
  RPE1 cell growth: 82 and 55 and 57
500 nM, 38 h, listed as AN1
  RPE1 cell growth: 85 and 60
500 nM, 42 h, listed as AN1
  RPE1 cell growth: 91 and 67 and 63
500 nM, 44 h, listed as AN1
  RPE1 cell growth: 94 and 73 and 74
500 nM, 46 h, listed as AN1
  RPE1 cell growth: 96 and 78
500 nM, 48 h, listed as AN1
  RPE1 cell growth: 97 and 81 and 83
500 nM, 50 h, listed as AN1
  RPE1 cell growth: 98 and 86
500 nM, 54 h, listed as AN1
  RPE1 cell growth: 99 and 94 and 92
500 nM, 56 h, listed as AN1
  RPE1 cell growth: 100 and 94 and 91
500 nM, 58 h, listed as AN1
  RPE1 cell growth: 100 and 96 and 97
500 nM, 60 h, listed as AN1
  RPE1 cell growth: 100 and 98
500 nM, 62 h, listed as AN1
  RPE1 cell growth: 100 and 99
500 nM, 64 h, listed as AN1
  RPE1 cell growth: 100 and 99
500 nM, 66 h
  RPE1 cell growth: 100
500 nM, 68 h
  RPE1 cell growth: 100
500 nM, 70 h
  RPE1 cell growth: 100
500 nM, 72 h
  RPE1 cell growth: 100
500 nM, time 20 h, listed as AN1
  RPE1 cell growth: 53 and 28 and 35
